Measured values taken from patent US12729225B2, “Non-canonical SWI/SNF complex and uses thereof” (Dana-Farber Cancer Institute, Inc., priority 2018, dated 2026).

Tested on: mSWI/SNF complexes
Test: mSWI/SNF complex purification with HA-tagged baits and mass spectrometry (peptide counts)
Parameters: species or system human
[1] = 293_HA-BRD7 bait purification, mass spectrometry, total peptides per co-purified protein
[2] = 293_HA-BRD7 bait purification, mass spectrometry, unique peptides per co-purified protein

B1: RRP1 (protein, UniProt P56182 1-461, looked up)
Ribosomal RNA processing …: MVSRVQLPPEIQLAQRLAGNEQVTRDRAVRKLRKYIVARTQRAAGGFTHDELLKVWKGLFYCMWMQDKPLLQEELGRTISQLVHAFQTTEAQHLFLQAFWQTMNREWTGIDRLRLDKFYMLMRMVLNESLKVLKMQGWEERQIEELLELLMTEILHPSSQAPNGVKSHFIEIFLEELTKVGAEELTADQNLKFIDPFCRIAARTKDSLVLNNITRGIFETIVEQAPLAIEDLLNELDTQDEEVASDSDESSEGGERGDALSQKRSEKPPAGSICRAEPEAGEEQAGDDRDSGGPVLQFDYEAVANRLFEMASRQSTPSQNRKRLYKVIRKLQDLAGGIFPEDEIPEKACRRLLEGRRQKKTKKQKRLLRLQQERGKGEKEPPSPGMERKRSRRRGVGADPEARAEAGEQPGTAERALLRDQPRGRGQRGARQRRRTPRPLTSARAKAANVQEPEKKKKRRE
**Q.** Which Total [1] does the source give for B1 here?
**A.** 3

**Q.** And the Unique [2]?
**A.** 3

B2: TFB1M (protein, UniProt Q8WVM0 28-346, looked up)
Dimethyladenosine transferase …: QAAKQLSQNFLLDLRLTDKIVRKAGNLTNAYVYEVGPGPGGITRSILNADVAELLVVEKDTRFIPGLQMLSDAAPGKLRIVHGDVLTFKVEKAFSESLKRPWEDDPPNVHIIGNLPFSVSTPLIIKWLENISCRDGPFVYGRTQMTLTFQKEVAERLAANTGSKQRSRLSVMAQYLCNVRHIFTIPGQAFVPKPEVDVGVVHFTPLIQPKIEQPFKLVEKVVQNVFQFRRKYCHRGLRMLFPEAQRLESTGRLLELADIDPTLRPRQLSISHFKSLCDVYRKMCDEDPQLFAYNFREELKRRKSKNEEKEEDDAENYRL
**Q.** Which Total [1] does the source give for B2 here?
**A.** 3

**Q.** And the Unique [2]?
**A.** 3

B3: CAAP1 (protein, UniProt Q9H8G2 1-361, looked up)
Caspase activity and …: MTGKKSSREKRRKRSSQEAAAALAAPDIVPALASGSSGSTSGCGSAGGCGSVSCCGNANFSGSVTGGGSGGSCWGGSSVERSERRKRRSTDSSSVSGSLQQETKYILPTLEKELFLAEHSDLEEGGLDLTVSLKPVSFYISDKKEMLQQCFCIIGEKKLQKMLPDVLKNCSIEEIKKLCQEQLELLSEKKILKILEGDNGMDSDMEEEADDGSKMGSDLVSQQDICIDSASSVRENKQPEGLELKQGKGEDSDVLSINADAYDSDIEGPCNEEAAAPEAPENTVQSEAGQIDDLEKDIEKSVNEILGLAESSPNEPKAATLAVPPPEDVQPSAQQLELLELEMRARAIKALMKAGDIKKPA
**Q.** For B3, which Total [1] is on record?
**A.** 3

**Q.** And the Unique [2]?
**A.** 3

B4: NUP160 (protein, UniProt Q12769 1-1436, looked up)
Nuclear pore complex protein …: MLHLSAAPPAPPPEVTATARPCLCSVGRRGDGGKMAAAGALERSFVELSGAERERPRHFREFTVCSIGTANAVAGAVKYSESAGGFYYVESGKLFSVTRNRFIHWKTSGDTLELMEESLDINLLNNAIRLKFQNCSVLPGGVYVSETQNRVIILMLTNQTVHRLLLPHPSRMYRSELVVDSQMQSIFTDIGKVDFTDPCNYQLIPAVPGISPNSTASTAWLSSDGEALFALPCASGGIFVLKLPPYDIPGMVSVVELKQSSVMQRLLTGWMPTAIRGDQSPSDRPLSLAVHCVEHDAFIFALCQDHKLRMWSYKEQMCLMVADMLEYVPVKKDLRLTAGTGHKLRLAYSPTMGLYLGIYMHAPKRGQFCIFQLVSTESNRYSLDHISSLFTSQETLIDFALTSTDIWALWHDAENQTVVKYINFEHNVAGQWNPVFMQPLPEEEIVIRDDQDPREMYLQSLFTPGQFTNEALCKALQIFCRGTERNLDLSWSELKKEVTLAVENELQGSVTEYEFSQEEFRNLQQEFWCKFYACCLQYQEALSHPLALHLNPHTNMVCLLKKGYLSFLIPSSLVDHLYLLPYENLLTEDETTISDDVDIARDVICLIKCLRLIEESVTVDMSVIMEMSCYNLQSPEKAAEQILEDMITIDVENVMEDICSKLQEIRNPIHAIGLLIREMDYETEVEMEKGFNPAQPLNIRMNLTQLYGSNTAGYIVCRGVHKIASTRFLICRDLLILQQLLMRLGDAVIWGTGQLFQAQQDLLHRTAPLLLSYYLIKWGSECLATDVPLDTLESNLQHLSVLELTDSGALMANRFVSSPQTIVELFFQEVARKHIISHLFSQPKAPLSQTGLNWPEMITAITSYLLQLLWPSNPGCLFLECLMGNCQYVQLQDYIQLLHPWCQVNVGSCRFMLGRCYLVTGEGQKALECFCQAASEVGKEEFLDRLIRSEDGEIVSTPRLQYYDKVLRLLDVIGLPELVIQLATSAITEAGDDWKSQATLRTCIFKHHLDLGHNSQAYEALTQIPDSSRQLDCLRQLVVVLCERSQLQDLVEFPYVNLHNEVVGIIESRARAVDLMTHNYYELLYAFHIYRHNYRKAGTVMFEYGMRLGREVRTLRGLEKQGNCYLAALNCLRLIRPEYAWIVQPVSGAVYDRPGASPKRNHDGECTAAPTNRQIEILELEDLEKECSLARIRLTLAQHDPSAVAVAGSSSAEEMVTLLVQAGLFDTAISLCQTFKLPLTPVFEGLAFKCIKLQFGGEAAQAEAWAWLAANQLSSVITTKESSATDEAWRLLSTYLERYKVQNNLYHHCVINKLLSHGVPLPNWLINSYKKVDAAELLRLYLNYDLLEEAVDLVSEYVDAVLGKGHQYFGIEFPLSATAPMVWLPYSSIDQLLQALGENSANSHNIALSQKILDKLEDYQQKVDKATRDLLYRRTL
**Q.** How did the Total [1] turn out when B4 was run?
**A.** 3

**Q.** What about the Unique [2] of the same molecule?
**A.** 3

B5: SNRNP40 (protein)
chain: MIEQQKRKGPELPLVPVKRQRHELLLGAGSGPGAGQQQATPGALLQAGPPRCSSLQAPIMLLSGHEGEVYCCKFHPNGSTLASAGFDRLILLWNVYGDCDNYATLKGHSGAVMELHYNTDGSMLFSASTDKTVAVWDSETGERVKRLKGHTSFVNSCYPARRGPQLVCTGSDDGTVKLWDIRKKAAIQTFQNTYQVLAVTFNDTSDQIISGGIDNDIKVWDLRQNKLTYTMRGHADSVTGLSLSSEGSYLLSNAMDNTVRVWDVRPFAPKERCVKIFQGNVHNFEKNLLRCSWSPDGSKIAAGSADRFVYVWDTTSRRILYKLPGHAGSINEVAFHPDEPIIISASSDKRLYMGEIQ
**Q.** B5 was tested. Which Total [1] did it give?
**A.** 3

**Q.** And the Unique [2]?
**A.** 3

B6: METTL17 (protein, UniProt Q9H7H0 20-456, looked up)
Ribosome assembly protein …: VAPQARALAALVPGVTQVDNKSGFLQKRPHRQHPGILKLPHVRLPQALANGAQLLLLGSAGPTMENQVQTLTSYLWSRHLPVEPEELQRRARHLEKKFLENPDLSQTEEKLRGAVLHALRKTTYHWQELSYTEGLSLVYMAARLDGGFAAVSRAFHEIRARNPAFQPQTLMDFGSGTGSVTWAAHSIWGQSLREYMCVDRSAAMLVLAEKLLKGGSESGEPYIPGVFFRQFLPVSPKVQFDVVVSAFSLSELPSKADRTEVVQTLWRKTGHFLVLVENGTKAGHSLLMDARDLVLKGKEKSPLDPRPGFVFAPCPHELPCPQLTNLACSFSQAYHPIPFSWNKKPKEEKFSMVILARGSPEEAHRWPRITQPVLKRPRHVHCHLCCPDGHMQHAVLTARRHGRDLYRCARVSSWGDLLPVLTPSAFPPSTAQDPSES
**Q.** What does the source list for B6?
**A.** Total [1]: 3; Unique [2]: 3

B7: NCLN (protein, UniProt Q969V3 43-563, looked up)
BOS complex subunit NCLN: AHEFTVYRMQQYDLQGQPYGTRNAVLNTEARTMAAEVLSRRCVLMRLLDFSYEQYQKALRQSAGAVVIILPRAMAAVPQDVVRQFMEIEPEMLAMETAVPVYFAVEDEALLSIYKQTQAASASQGSASAAEVLLRTATANGFQMVTSGVQSKAVSDWLIASVEGRLTGLGGEDLPTIVIVAHYDAFGVAPWLSLGADSNGSGVSVLLELARLFSRLYTYKRTHAAYNLLFFASGGGKFNYQGTKRWLEDNLDHTDSSLLQDNVAFVLCLDTVGRGSSLHLHVSKPPREGTLQHAFLRELETVAAHQFPEVRFSMVHKRINLAEDVLAWEHERFAIRRLPAFTLSHLESHRDGQRSSIMDVRSRVDSKTLTRNTRIIAEALTRVIYNLTEKGTPPDMPVFTEQMQIQQEQLDSVMDWLTNQPRAAQLVDKDSTFLSTLEHHLSRYLKDVKQHHVKADKRDPEFVFYDQLKQVMNAYRVKPAVFDLLLAVGIAAYLGMAYVAVQHFSLLYKTVQRLLVKAKTQ
**Q.** B7 was tested. Which Total [1] did it give?
**A.** 3

**Q.** And the Unique [2]?
**A.** 3

B8: PRPF19 (protein, UniProt Q9UMS4 2-504, looked up)
Pre-mRNA-processing factor 19: SLICSISNEVPEHPCVSPVSNHVYERRLIEKYIAENGTDPINNQPLSEEQLIDIKVAHPIRPKPPSATSIPAILKALQDEWDAVMLHSFTLRQQLQTTRQELSHALYQHDAACRVIARLTKEVTAAREALATLKPQAGLIVPQAVPSSQPSVVGAGEPMDLGELVGMTPEIIQKLQDKATVLTTERKKRGKTVPEELVKPEELSKYRQVASHVGLHSASIPGILALDLCPSDTNKILTGGADKNVVVFDKSSEQILATLKGHTKKVTSVVFHPSQDLVFSASPDATIRIWSVPNASCVQVVRAHESAVTGLSLHATGDYLLSSSDDQYWAFSDIQTGRVLTKVTDETSGCSLTCAQFHPDGLIFGTGTMDSQIKIWDLKERTNVANFPGHSGPITSIAFSENGYYLATAADDSSVKLWDLRKLKNFKTLQLDNNFEVKSLIFDQSGTYLALGGTDVQIYICKQWTEILHFTEHSGLTTGVAFGHHAKFIASTGMDRSLKFYSL
**Q.** For B8, which Total [1] is on record?
**A.** 3

**Q.** What about the Unique [2] of the same molecule?
**A.** 3

B9: KRT9 (protein, UniProt P35527 1-623, looked up)
Keratin, type I cytoskeletal 9: MSCRQFSSSYLSRSGGGGGGGLGSGGSIRSSYSRFSSSGGGGGGGRFSSSSGYGGGSSRVCGRGGGGSFGYSYGGGSGGGFSASSLGGGFGGGSRGFGGASGGGYSSSGGFGGGFGGGSGGGFGGGYGSGFGGFGGFGGGAGGGDGGILTANEKSTMQELNSRLASYLDKVQALEEANNDLENKIQDWYDKKGPAAIQKNYSPYYNTIDDLKDQIVDLTVGNNKTLLDIDNTRMTLDDFRIKFEMEQNLRQGVDADINGLRQVLDNLTMEKSDLEMQYETLQEELMALKKNHKEEMSQLTGQNSGDVNVEINVAPGKDLTKTLNDMRQEYEQLIAKNRKDIENQYETQITQIEHEVSSSGQEVQSSAKEVTQLRHGVQELEIELQSQLSKKAALEKSLEDTKNRYCGQLQMIQEQISNLEAQITDVRQEIECQNQEYSLLLSIKMRLEKEIETYHNLLEGGQEDFESSGAGKIGLGGRGGSGGSYGRGSRGGSGGSYGGGGSGGGYGGGSGSRGGSGGSYGGGSGSGGGSGGGYGGGSGGGHSGGSGGGHSGGSGGNYGGGSGSGGGSGGGYGGGSGSRGGSGGSHGGGSGFGGESGGSYGGGEEASGSGGGYGGGSGKSSHS
**Q.** With B9 as the molecule, how does the Total (293_HA-BRD7: HA-BRD7 bait purification, total peptide count per co-purified protein) read?
**A.** 29

**Q.** What about the Unique (293_HA-BRD7: HA-BRD7 bait purification, unique peptide count per co-purified protein) of the same molecule?
**A.** 23
